# Where two headings read alike, the source gives them in different places. These are yes or no findings as the source states them, for the method shown. Binding seen in cells or lysates may run through a third protein. Some results given as binding are weak or reduced against the parent protein; the word gives no strength.
# Protein sequences, listed by entry. Tags and fused reporters are not part of them. Residues count along the entry.
# UniProt A2AKX3: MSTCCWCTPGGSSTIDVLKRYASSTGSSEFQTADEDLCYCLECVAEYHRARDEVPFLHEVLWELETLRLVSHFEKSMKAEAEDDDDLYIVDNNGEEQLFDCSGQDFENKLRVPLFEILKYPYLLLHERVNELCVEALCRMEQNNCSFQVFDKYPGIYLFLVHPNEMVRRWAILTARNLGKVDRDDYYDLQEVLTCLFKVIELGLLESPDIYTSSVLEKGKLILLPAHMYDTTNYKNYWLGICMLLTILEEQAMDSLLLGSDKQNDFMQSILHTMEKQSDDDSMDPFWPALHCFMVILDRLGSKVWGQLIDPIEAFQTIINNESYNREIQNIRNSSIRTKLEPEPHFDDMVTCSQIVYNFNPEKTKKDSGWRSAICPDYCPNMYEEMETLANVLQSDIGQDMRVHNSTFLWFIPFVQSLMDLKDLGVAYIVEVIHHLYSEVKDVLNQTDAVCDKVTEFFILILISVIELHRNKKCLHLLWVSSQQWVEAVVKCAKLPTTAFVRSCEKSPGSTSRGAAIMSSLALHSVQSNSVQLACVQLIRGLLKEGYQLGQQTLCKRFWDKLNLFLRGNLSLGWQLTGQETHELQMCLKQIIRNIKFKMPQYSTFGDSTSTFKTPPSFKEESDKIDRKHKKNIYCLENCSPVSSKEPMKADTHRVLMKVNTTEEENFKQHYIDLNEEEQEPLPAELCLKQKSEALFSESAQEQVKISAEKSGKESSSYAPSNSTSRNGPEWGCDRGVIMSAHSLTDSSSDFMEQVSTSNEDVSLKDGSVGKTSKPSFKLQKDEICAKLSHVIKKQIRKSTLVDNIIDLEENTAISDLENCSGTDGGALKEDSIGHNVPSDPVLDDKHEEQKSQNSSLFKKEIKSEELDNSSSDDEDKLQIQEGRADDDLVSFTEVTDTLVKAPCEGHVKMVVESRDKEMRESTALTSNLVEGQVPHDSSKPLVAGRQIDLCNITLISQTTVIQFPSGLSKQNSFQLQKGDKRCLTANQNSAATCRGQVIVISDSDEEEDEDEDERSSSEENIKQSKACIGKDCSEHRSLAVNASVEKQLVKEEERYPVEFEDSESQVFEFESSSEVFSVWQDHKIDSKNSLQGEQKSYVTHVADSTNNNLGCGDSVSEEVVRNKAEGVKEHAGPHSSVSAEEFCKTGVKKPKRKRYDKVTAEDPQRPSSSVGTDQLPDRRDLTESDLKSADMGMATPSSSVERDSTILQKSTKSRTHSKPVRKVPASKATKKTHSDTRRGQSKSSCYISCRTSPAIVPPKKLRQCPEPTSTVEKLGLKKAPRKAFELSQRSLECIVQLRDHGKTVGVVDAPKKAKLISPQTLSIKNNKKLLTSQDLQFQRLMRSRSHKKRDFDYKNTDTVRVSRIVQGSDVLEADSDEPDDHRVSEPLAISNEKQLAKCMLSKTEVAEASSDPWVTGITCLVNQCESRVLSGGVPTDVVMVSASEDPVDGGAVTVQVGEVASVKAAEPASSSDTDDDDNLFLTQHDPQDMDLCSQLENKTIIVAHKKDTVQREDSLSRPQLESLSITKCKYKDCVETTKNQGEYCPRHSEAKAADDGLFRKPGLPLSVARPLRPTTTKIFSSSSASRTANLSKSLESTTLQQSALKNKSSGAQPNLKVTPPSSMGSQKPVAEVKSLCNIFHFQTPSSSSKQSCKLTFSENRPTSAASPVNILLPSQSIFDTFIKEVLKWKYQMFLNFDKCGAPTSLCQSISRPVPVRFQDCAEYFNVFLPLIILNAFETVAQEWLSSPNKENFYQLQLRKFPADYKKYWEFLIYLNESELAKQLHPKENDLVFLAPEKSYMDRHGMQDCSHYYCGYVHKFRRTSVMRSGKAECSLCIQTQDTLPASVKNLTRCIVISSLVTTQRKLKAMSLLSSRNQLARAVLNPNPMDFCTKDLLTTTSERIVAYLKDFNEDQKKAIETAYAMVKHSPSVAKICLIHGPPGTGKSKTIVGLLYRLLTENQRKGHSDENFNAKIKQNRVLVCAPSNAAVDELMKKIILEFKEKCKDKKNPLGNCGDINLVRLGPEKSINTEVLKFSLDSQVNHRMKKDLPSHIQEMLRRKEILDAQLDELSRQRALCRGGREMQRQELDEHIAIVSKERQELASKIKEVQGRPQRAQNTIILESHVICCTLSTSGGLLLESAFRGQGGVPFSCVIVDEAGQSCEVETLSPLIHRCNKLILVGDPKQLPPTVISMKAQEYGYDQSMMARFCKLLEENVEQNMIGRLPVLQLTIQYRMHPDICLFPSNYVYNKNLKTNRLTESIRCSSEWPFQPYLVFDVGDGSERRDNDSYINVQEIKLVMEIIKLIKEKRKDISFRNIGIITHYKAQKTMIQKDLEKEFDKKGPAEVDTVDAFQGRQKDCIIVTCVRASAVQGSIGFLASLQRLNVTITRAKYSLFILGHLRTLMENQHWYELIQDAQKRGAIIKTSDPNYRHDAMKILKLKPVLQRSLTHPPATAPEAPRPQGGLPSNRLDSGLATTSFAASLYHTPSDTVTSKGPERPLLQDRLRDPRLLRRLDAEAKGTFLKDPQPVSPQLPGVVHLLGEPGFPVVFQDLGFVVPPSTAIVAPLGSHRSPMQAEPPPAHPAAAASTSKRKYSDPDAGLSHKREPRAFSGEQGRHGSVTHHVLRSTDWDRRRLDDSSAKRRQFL
# UniProt P63166, residues 1-97: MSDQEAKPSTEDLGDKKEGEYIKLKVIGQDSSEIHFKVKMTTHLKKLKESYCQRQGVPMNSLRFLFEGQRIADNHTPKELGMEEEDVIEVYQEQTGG
# UniProt Q6PDQ2: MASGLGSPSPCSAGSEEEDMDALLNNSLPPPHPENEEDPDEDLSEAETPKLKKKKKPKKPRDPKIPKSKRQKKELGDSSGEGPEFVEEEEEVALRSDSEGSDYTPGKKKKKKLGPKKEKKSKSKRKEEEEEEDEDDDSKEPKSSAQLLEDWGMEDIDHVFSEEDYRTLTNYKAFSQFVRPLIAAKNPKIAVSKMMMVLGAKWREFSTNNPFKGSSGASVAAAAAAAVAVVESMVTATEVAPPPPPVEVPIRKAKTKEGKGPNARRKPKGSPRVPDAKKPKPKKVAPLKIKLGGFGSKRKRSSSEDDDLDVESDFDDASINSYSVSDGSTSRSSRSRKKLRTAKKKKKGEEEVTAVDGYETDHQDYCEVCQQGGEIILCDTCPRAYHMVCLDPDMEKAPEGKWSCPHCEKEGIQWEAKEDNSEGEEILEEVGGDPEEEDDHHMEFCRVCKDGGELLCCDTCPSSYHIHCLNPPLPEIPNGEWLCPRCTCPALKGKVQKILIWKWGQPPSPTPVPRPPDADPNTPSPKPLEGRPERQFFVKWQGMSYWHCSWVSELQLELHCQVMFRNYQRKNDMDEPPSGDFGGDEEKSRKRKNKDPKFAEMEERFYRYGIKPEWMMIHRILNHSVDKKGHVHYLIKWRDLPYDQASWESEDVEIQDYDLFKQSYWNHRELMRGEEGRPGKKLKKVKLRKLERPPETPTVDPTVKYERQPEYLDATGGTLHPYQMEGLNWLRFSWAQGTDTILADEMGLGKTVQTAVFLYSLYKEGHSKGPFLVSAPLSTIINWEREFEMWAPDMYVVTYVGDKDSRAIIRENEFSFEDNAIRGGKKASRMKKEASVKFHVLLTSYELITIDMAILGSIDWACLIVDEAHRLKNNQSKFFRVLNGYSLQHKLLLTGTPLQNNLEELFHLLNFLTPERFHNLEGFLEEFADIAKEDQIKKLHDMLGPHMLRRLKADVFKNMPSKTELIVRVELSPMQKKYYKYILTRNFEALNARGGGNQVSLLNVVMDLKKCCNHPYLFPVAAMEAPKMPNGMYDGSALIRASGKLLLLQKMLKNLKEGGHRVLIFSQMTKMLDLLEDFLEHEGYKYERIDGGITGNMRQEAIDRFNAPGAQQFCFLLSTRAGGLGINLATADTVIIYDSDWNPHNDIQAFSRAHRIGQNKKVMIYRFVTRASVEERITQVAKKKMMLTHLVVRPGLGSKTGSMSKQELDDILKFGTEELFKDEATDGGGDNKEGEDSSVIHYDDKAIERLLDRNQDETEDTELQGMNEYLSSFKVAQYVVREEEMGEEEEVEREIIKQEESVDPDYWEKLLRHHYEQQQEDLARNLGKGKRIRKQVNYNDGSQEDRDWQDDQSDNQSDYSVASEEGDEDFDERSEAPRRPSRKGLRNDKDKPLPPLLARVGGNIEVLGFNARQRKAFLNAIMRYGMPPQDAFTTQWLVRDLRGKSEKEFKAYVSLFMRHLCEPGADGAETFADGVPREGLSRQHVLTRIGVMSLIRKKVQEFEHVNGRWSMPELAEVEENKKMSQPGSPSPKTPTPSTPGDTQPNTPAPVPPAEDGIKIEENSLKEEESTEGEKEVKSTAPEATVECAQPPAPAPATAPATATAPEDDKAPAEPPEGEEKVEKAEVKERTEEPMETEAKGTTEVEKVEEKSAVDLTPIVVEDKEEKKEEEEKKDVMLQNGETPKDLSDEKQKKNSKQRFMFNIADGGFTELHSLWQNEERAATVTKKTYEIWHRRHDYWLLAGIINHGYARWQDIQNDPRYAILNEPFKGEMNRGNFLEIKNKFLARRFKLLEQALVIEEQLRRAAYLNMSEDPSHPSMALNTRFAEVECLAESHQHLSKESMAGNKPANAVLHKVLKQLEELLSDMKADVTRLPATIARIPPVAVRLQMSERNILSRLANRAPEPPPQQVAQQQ
# Assays:
# [1] = molecular target: senataxin (mouse (endogenous in testes)) (UniProt A2AKX3); assay: proximity ligation; Duolink PLA on fixed Setx+/+ mouse spermatocyte spreads (pachytene stage), endogenous proteins, sheep anti-Setx with rabbit anti-SUMO-1 or rabbit anti-CHD4; control without primary antibody
# [2] = molecular target: Small ubiquitin-like modifier 1 (SUMO-1) (mouse (endogenous in testes)) (UniProt P63166); assay: co-IP; endogenous proteins from testes extracts of 35-day-old Setx+/+ and Setx-/- mice; lysis buffer 50 mM Tris-HCl pH 7.4, 150 mM NaCl, 0.2% Triton X-100, 0.3% NP-40, with NEM; antibody overnight at 4 °C, protein A beads; immunoblot; nonspecific IgG as control
# [3] = molecular target: Small ubiquitin-like modifier 1 (SUMO-1) (mouse (endogenous in testes)) (UniProt P63166); assay: as above; remark: listed apart in the source
molecule,measurement,setting,value
Chromodomain helicase DNA-binding protein 4 (from UniProt Q6PDQ2 1-1915),binding,[1],binds
senataxin (from UniProt A2AKX3 1-2646),binding,[2],binds
"ataxia telangiectasia and Rad3-related protein-interacting partner (protein, UniProt Q8BMG1 1-785) MAGTPAPNSHRKQSGGLEPFPGLSRSIENPPSKRARSFSETTVPDPEDPFGEHAEFTADDLEELDILASQALSQCPVAPRNLSSAHKVRRLDGLPNSPIRKSREDIPVKDNFELEVLQIQYKELKEKLKAMEEEILIKNGEIKILRDSLRQTESVLEEQKRSHFLLEQEKTQALSEKEKEFSRKLQSLQSELQFKDAEMNELRTKSQSNGRTNKPAAPSVSHVSPRKGSSVVLKSEACSPHVGKTTFPTKESFSANTPLFHPCQTEAGHRFLVGQEVSDNKNHSLGGSLMKQDVQQRILADGWMQRKDAQGSILINLLLKQPLVPGSSLGLCHLLSSCPEVPTGTLLQPPGLSTLPGTSGLRTISSSDGPFSPSALREAQNLAFTGLNLVARTESSHDGDMAGRRVFPLHQLPGAVHLLPLVQFFVGLHCQALQDLAPAKKSGVPGDSATHTSCMSSGVEASPEDSIHGLESFSVASLSVLQNLVCHSGAVVCLLLSGMGTEAAAREGNLVQTCADTTSASREDAHDQDQHPLLKMLLQLMASSSAASGHFQASVLGLCLKVLVKLAENASSDLLPRFSCVFPVLPQCLGSALPLPCVLLAVELLSVLLDHDSLAWQLCSHPEGCLLLRLYMYITSRPDRTASETQWLQLEQEVVWLLAKLSVQSPAPAGIGSDCHCNVEAVRALTVMLHRQWLTVRRAGGPRTHQQKQTIRCLRDTVLLLHSLSQKDKLFTVHCVEVLHQYDQVMPGVSMLIRALPDVTDCEEAALDDLCAAETDLEDSEMDCN",binding,[3],binds

# — article PMC4860845
